Experimental data from patent US20250041294A1, “Synergistic compositions for use in the treatment of cancer” (Sartar Therapeutics Oy, priority 2021, published 2025).
At least one structure is not confirmed: it was looked up by name or label, or the drawing left a doubt.

What follows are compounds tested on GIST882, GOT3 and SA4 cell lines (assay: High throughput drug sensitivity and resistance test, average over cell lines (BAY2666605 combination)). Details: with anagrelide (GOT3, SA4) or BAY2666605 (GIST882, GOT3, SA4).
Format: cell-based
Protocol: Cell lines. PDE3A-positive (GIST882, SA4, and GOT3) and PDE3A-negative cell lines (93TT449, 94T778, LPS141, MLS17656-92, MLS402-91, and SW872) were cultured in RPMI Medium 1640 (Gibco) with 5-, 10- or 20% fetal bovine serum (FBS, gibco), 100 U/mL of penicillin, 100 […] and 0.03 mg/mL of L-glutamine (Pen Strep Glut, Gibco, 10378-016) in a humidified, 5% CO2 atmosphere at 37° C.
High throughput drug sensitivity and resistance test. A sensitivity and resistance of cancer cell lines to 528 compounds were investigated in 9 cell lines (GIST882, SA4, GOT3, 93TT449, 94T778, LPS141, MLS17656-92, MLS402-91, and SW872). In addition, same compounds were investigated together with anagrelide hydrochloride (100 nM) treatment in the PDE3A low expressing cell lines SA4 and GOT3, and with BAY2666605 (40 nM) in all PDE3A-positive cell lines GIST882, SA4 and GOT3. The compounds were dissolved in 100% dimethyl sulfoxide or water and plated in 10-fold dilutions covering a 10,000-fold concentration range on flat clear bottom 384-well microplates as described in detail earlier (Pulkka O P, et al 2019). A cell viability was measured after 72 hours using CellTiter-Glo Cell Viability assay (Promega Inc.) and PHERAstar FS plate reader (BMG Labtech). The data were normalized to negative (0.01% dimethyl sulfoxide only) and positive (100 μmol/L benzethonium chloride) controls.
A four-parameter logistic dose-response curves were estimated by using the Marquardt-Levenberg algorithm and Breeze analysis platform. Drug responses to the test compounds were measured using the drug sensitivity score (DSS). Drug synergy partners, which were common in investigated cell lines were identified as following: DSS value of a single agent was subtracted from the DSS value of anagrelide-drug combination in single cell lines. […] The analysis was repeated by using BAY2666605 as a PDE3A modulator.

Question: For CO[C@@H]1[C@H](N(C)C(=O)c2ccccc2)C[C@H]2O[C@]1(C)n1c3ccccc3c3c4c(c5c6ccccc6n2c5c31)C(=O)NC4 [Midostaurin, midostaurin], which “synergy in high-throughput screening (in words)” value (“synergy” for short) is on record?
Answer: synergistic

Question: Cc1[nH]c2ccccc2c1CCNCc1ccc(/C=C/C(=O)NO)cc1 [Panobinostat, panobinostat] was tested. Which “synergy” value did it give?
Answer: synergistic

Question: With CC1(C)CCC(CN2CCN(c3ccc(C(=O)NS(=O)(=O)c4ccc(NCC5CCOCC5)c([N+](=O)[O-])c4)c(Oc4cnc5[nH]ccc5c4)c3)CC2)=C(c2ccc(Cl)cc2)C1 [Venetoclax, venetoclax] as the compound, how does the “synergy” value read?
Answer: synergistic
